The source of these data is USRE46830 (dated 2018).

Data set [1] can be described thus: general procedure: Fmoc solid-phase peptide synthesis; 2-CTC.
Data set [2] in a line: general procedure: Fmoc solid-phase peptide synthesis; Wang resin. The settings on record: whole synthesis.

For “NH2-D-Phe-Pro-Arg-Pro-Gly-Gly-Gly-Gly-Asn-Gly-Asp-Phe-Glu-Glu-Ile-Pro-Glu-Glu-Tyr-Leu-OH”, the “crude HPLC purity” value in data set [1] (late stage modification step, HPLC and LC-MS) is “about 55% purity”. Besides, the crude yield entry in data set [1] (whole synthesis, jointly over steps 2 and 3 (cleavage and global deprotection)) is listed as “about 55%”. Also, the difficulty met in data set [2] is listed as 1-10% of the peptide product proved alkylated in case of Wang resin.
